Assay results published in patent US20040072738A1 (priority 2000, published 2004).

Experiment: general procedure: solution-phase peptide synthesis; EDCI/HOAt; EDCI/DMAP for chromophore acylation

Substance	step yield (late stage modification step) [%]	also measured
I: Quinaldoyl-[dC]G[NMeC][NMeC](Me) / II: Quinaldoyl-[dC]G[NMeC][NMeC](Me) (thioester I:1-II:C, I:C-II:1; disulfide I:3-II:3; SMILES CSC[C@H]1C(=O)SC[C@@H](NC(=O)c2ccc3ccccc3n2)C(=O)NCC(=O)N(C)[C@H]2CSSC[C@@H](C(=O)N1C)N(C)C(=O)CNC(=O)[C@H](NC(=O)c1ccc3ccccc3n1)CSC(=O)[C@H](CSC)N(C)C2=O)	52	–
I: Quinoxaline2carbonyl-[dC]G[NMeC][NMeC](Me) / II: Quinoxaline2carbonyl-[dC]G[NMeC][NMeC](Me) (thioester I:1-II:C, I:C-II:1; disulfide I:3-II:3; SMILES CSC[C@H]1C(=O)SC[C@@H](NC(=O)c2cnc3ccccc3n2)C(=O)NCC(=O)N(C)[C@H]2CSSC[C@@H](C(=O)N1C)N(C)C(=O)CNC(=O)[C@H](NC(=O)c1cnc3ccccc3n1)CSC(=O)[C@H](CSC)N(C)C2=O)	47	–
I: {Quinaldoyl(3-OH)}-[dC]G[NMeC][NMeDha] / II: {Quinaldoyl(3-OH)}-[dC]G[NMeC][NMeDha] (thioester I:1-II:C, I:C-II:1; disulfide I:3-II:3; SMILES C=C1C(=O)SC[C@@H](NC(=O)c2nc3ccccc3cc2O)C(=O)NCC(=O)N(C)[C@H]2CSSC[C@@H](C(=O)N1C)N(C)C(=O)CNC(=O)[C@H](NC(=O)c1nc3ccccc3cc1O)CSC(=O)C(=C)N(C)C2=O)	66	–
I: {Quinaldoyl(3-OH,6-OMe)}-[dC]G[NMeC][NMeC](Me) / II: {Quinaldoyl(3-OH,6-OMe)}-[dC]G[NMeC][NMeC](Me) (thioester I:1-II:C, I:C-II:1; disulfide I:3-II:3; SMILES COc1ccc2nc(C(=O)N[C@@H]3CSC(=O)[C@H](CSC)N(C)C(=O)[C@@H]4CSSC[C@@H](C(=O)N(C)[C@@H](CSC)C(=O)SC[C@@H](NC(=O)c5nc6ccc(OC)cc6cc5O)C(=O)NCC(=O)N4C)N(C)C(=O)CNC3=O)c(O)cc2c1)	51	–
N-Cbz-D-Cys[N-BOC-Gly-NMe-L-Cys(Acm)-NMe-L--Cys(Me)]-OTce	–	step yield (coupling step): 83%
N-Cbz-D-Cys[N-Cbz-D-Cys(N-BOC-Gly-NMe-L-Cys(Acm)-NMe-L-Cys(Me))-Gly-NMe-L-Cys(Acm)-NMe-L--Cys(Me)]-OTce	–	step yield (coupling step): 83%
PEPTIDE1{[Cbz].[dC].G.[NMeCys].[NMeCys(Me)]}|PEPTIDE2{[Cbz].[dC].G.[NMeCys].[NMeCys(Me)]}$PEPTIDE1,PEPTIDE2,5:R2-2:R3|PEPTIDE2,PEPTIDE1,5:R2-2:R3|PEPTIDE1,PEPTIDE2,4:R3-4:R3$$$V2.0	–	cyclisation yield (cyclisation step): 52%

Strings that start with PEPTIDE1 are HELM notation: dots part the residues, brackets hold end groups and non-standard residues. Bridge positions count the residues as written; N and C are the ends. Square brackets hold non-standard residues; d marks the D form. I, II: the chains in the order shown. * marks the point of attachment. Quinaldoyl(3-OH,6-OMe) = COc1ccc2nc(C(=O)*)c(O)cc2c1; Quinoxaline2carbonyl = O=C(c1cnc2ccccc2n1)*; Quinaldoyl(3-OH) = O=C(c1nc2ccccc2cc1O)*; Quinaldoyl = O=C(c1ccc2ccccc2n1)*; NMeC = CN[C@@H](CS)C(=O)O; NMeDha = C=C(NC)C(=O)O
